Experimental findings from the supplement of paper PMC7238544 are described below.

Each structure is given as a SMILES string. Counter-ions that a name gives are not always drawn. ± gives the standard deviation of the averaged measurements. This is one part of the list. The data scatter; read single values as rough.

The first test has as its system hAMSC donor 2. Put plainly: transgenic luciferase activity (RLU/mg protein) fold change vs vehicle control (ratio); higher = more transgene expression. As to conditions: priming compound concentration 13 µM.
Take `CN(CCOc1ccc(CC2SC(=O)NC2=O)cc1)c1ccccn1` (stereo unspecified) [Rosiglitazone maleate]: the transgenic luciferase activity came out at 1.41 ± 0.25. `COc1cc(OC)c(C(=O)CCCN2CCCC2)c(OC)c1` [Buflomedil hydrochloride]: the transgenic luciferase activity was found to be 1.03 ± 0.22. Same read-out and setting: the same measure for `O=C(CCCN1CC=C(n2c(=O)[nH]c3ccccc32)CC1)c1ccc(F)cc1` [Droperidol]: 0.893 ± 0.14; for `CN1[C@@H]2CC[C@H]1C[C@@H](OC(=O)c1c[nH]c3ccccc13)C2` [Tropisetron hydrochloride]: 0.748 ± 0.11. Turning to `CN(C)CC[C@@H](c1ccc(Br)cc1)c1ccccn1` [Dexbrompheniramine maleate], the transgenic luciferase activity came out at 1.1 ± 0.33.

In the case of `CC(C)[C@H](N)C(=O)OCCOCn1cnc2c(=O)nc(N)[nH]c21` [Valaciclovir hydrochloride], the transgenic luciferase activity is 0.993 ± 0.77. As to `CCn1cc(C(=O)O)c(=O)c2cc(F)c(N3CCN(C)CC3)cc21` [Pefloxacin mesylate], the transgenic luciferase activity amounted to 0.773 ± 0.17.

The subject of another test is hAMSC donor 1. Description: transfection efficiency (EGFP+ cells / Hoechst count) fold change vs vehicle control (ratio); hAMSC are human adipose-derived mesenchymal stem cells given an EGFP-luciferase plasmid by lipofection; higher = enhanced transfection. As to conditions: priming compound concentration 0.2 µM.
Turning to `CN(CCOc1ccc(CC2SC(=O)NC2=O)cc1)c1ccccn1` (stereo unspecified) [Rosiglitazone maleate], the transfection efficiency is 1.48 ± 0.12. Regarding `C[C@](N)(Cc1ccc(O)cc1)C(=O)O` [alpha-Methyl-L-tyrosine], the transfection efficiency amounted to 0.679 ± 0.091. Take `COc1cc(OC)c(C(=O)CCCN2CCCC2)c(OC)c1` [Buflomedil hydrochloride]: the transfection efficiency amounted to 1.26 ± 0.22.

For the compound `COCCOC(=O)C1=C(C)NC(C)=C(C(=O)OC(C)C)C1c1cccc([N+](=O)[O-])c1` (stereo unspecified) [Nimodipine], the transfection efficiency turned out to be 1.45 ± 0.47. Consider `O=C(CCCN1CC=C(n2c(=O)[nH]c3ccccc32)CC1)c1ccc(F)cc1` [Droperidol], for which the transfection efficiency was determined as 1.38 ± 0.21. Still for that read-out and setting: the same measure for `CN1[C@@H]2CC[C@H]1C[C@@H](OC(=O)c1c[nH]c3ccccc13)C2` [Tropisetron hydrochloride]: 1.14 ± 0.14. For the compound `CN1[C@@H](CC(=O)c2ccccc2)CCC[C@H]1C[C@H](O)c1ccccc1` [Lobeline hydrochloride], the transfection efficiency worked out at 1.07 ± 0.23.

`CN(C)CCCC1(c2ccc(F)cc2)OCc2cc(C#N)ccc21` (stereo unspecified) [Citalopram hydrobromide]: the transfection efficiency came to 0.98 ± 0.34.

Regarding `CN(C)CCc1c[nH]c2ccc(Cn3cncn3)cc12` [Rizatriptan benzoate], the transfection efficiency is 1.28 ± 0.27.

With `Nc1ncn([C@@H]2O[C@H](CO)[C@@H](O)[C@H]2O)c(=O)n1` [5-Azacytidine], the transfection efficiency was determined as 0.539 ± 0.14. As for `O=C(O)CCc1nc(-c2ccccc2)c(-c2ccccc2)o1` [Oxaprozin], the transfection efficiency amounted to 1.24 ± 0.48. Consider `CN1CC(=O)N2[C@H](c3ccc4c(c3)OCO4)c3[nH]c4ccccc4c3C[C@@H]2C1=O` [Tadalafil], for which the transfection efficiency was found to be 0.819 ± 0.13.

Turning to `O=c1c(O[C@@H]2O[C@H](CO)[C@@H](O)[C@H](O)[C@H]2O)c(-c2ccc(O)c(O)c2)oc2cc(O)cc(O)c12` [Isoquercitrin], the transfection efficiency was found to be 1.33 ± 0.43.

Turning to `CN(C)[C@@H]1C(O)=C(C(N)=O)C(=O)[C@@]2(O)C(O)=C3C(=O)c4c(O)ccc(Cl)c4[C@@H](O)[C@H]3C[C@@H]12` [Demeclocycline], the transfection efficiency came to 0.761 ± 0.14. On to `OCCN1CCN(CCCN2c3ccccc3Sc3ccc(C(F)(F)F)cc32)CC1` [Fluphenazine dihydrochloride], for which the transfection efficiency turned out to be 1.86 ± 0.12.

With `CCN(CC)CCOc1ccc(C(=C(Cl)c2ccccc2)c2ccccc2)cc1` [Clomifene citrate], the transfection efficiency was 1.22 ± 0.2.

For `N#Cc1ccc(C(c2ccc(C#N)cc2)n2cncn2)cc1` [Letrozole], the transfection efficiency amounted to 1.38 ± 0.45. Same read-out and setting: the figure for `COc1cc([C@@H]2c3cc4c(cc3[C@@H](O[C@@H]3O[C@@H]5CO[C@@H](C)O[C@H]5[C@H](O)[C@H]3O)[C@H]3COC(=O)[C@H]23)OCO4)cc(OC)c1O` [Etoposide] is 1.01 ± 0.45; for `C[C@]12C[C@H](O)[C@H]3[C@@H](CCC4=CC(=O)CC[C@@]43C)[C@@H]1CC[C@@H]2C(=O)CO` [Corticosterone] it is 1.54 ± 0.33; for `CCN1CCCC1CNC(=O)c1cc(S(=O)(=O)CC)c(N)cc1OC` (stereo unspecified) [Amisulpride] it is 0.647 ± 0.2. In the case of `CN(C)CC[C@@H](c1ccc(Br)cc1)c1ccccn1` [Dexbrompheniramine maleate], the transfection efficiency amounted to 1.22 ± 0.54. On to `CC1=C(C/C=C(\C)CCC[C@H](C)CCC[C@H](C)CCCC(C)C)C(=O)c2ccccc2C1=O` [Phylloquinone], for which the transfection efficiency stood at 0.684 ± 0.12. As for `C[C@H](CS)C(=O)N1CCC[C@H]1C(=O)O` [Captopril], the transfection efficiency is 0.476 ± 0.18.

As for `c1ccc2c(CC3=NCCN3)cccc2c1` [Naphazoline hydrochloride], the transfection efficiency was found to be 1.04 ± 0.36. On the same count and under the same terms, the figure for `C[C@H]1O[C@@H](O[C@H]2[C@@H](O)C[C@H](O[C@H]3[C@@H](O)C[C@H](O[C@H]4CC[C@@]5(C)[C@H](CC[C@@H]6[C@@H]5C[C@@H](O)[C@]5(C)[C@@H](C7=CC(=O)OC7)CC[C@]65O)C4)O[C@@H]3C)O[C@@H]2C)C[C@H](O)[C@@H]1O` [Digoxin] is 1.24 ± 0.41; for `CC#C[C@]1(O)CC[C@H]2[C@@H]3CCC4=CC(=O)CCC4=C3[C@@H](c3ccc(N(C)C)cc3)C[C@@]21C` it is 1.41 ± 0.11; for `COc1ccccc1N1CCN(CC(O)COc2cccc3ccccc23)CC1` (stereo unspecified) [Naftopidil] it is 0.877 ± 0.34. With `CN1CCN(c2nc3cc(C(F)(F)F)ccc3n3cccc23)CC1`, the transfection efficiency turned out to be 0.991 ± 0.4. Same read-out and setting: the figure for `CC(C)[C@H](N)C(=O)OCCOCn1cnc2c(=O)nc(N)[nH]c21` [Valaciclovir hydrochloride] is 1.09 ± 0.22. On the same count and under the same terms, the same measure for `O=c1[nH]cc(F)c(=O)[nH]1` [5-Fluorouracil]: 0.605 ± 0.1. The same measure, in the same setting: the same measure for `CC1(C)S[C@@H]2[C@H](NC(=O)[C@H](N)c3ccc(O)cc3)C(=O)N2[C@H]1C(=O)O` [Amoxicillin]: 0.664 ± 0.067.

As to `CN1CCC[C@H]1c1cccnc1` [Nicotine], the transfection efficiency is 1.01 ± 0.36. Same read-out and setting: the same measure for `CC1(C)O[C@@H]2[C@@H](CO[C@@]3(COS(N)(=O)=O)OC(C)(C)O[C@@H]23)O1` [Topiramate]: 1.38 ± 0.41; for `Nc1ncnc2c1ncn2[C@@H]1O[C@H](CO)C[C@@H]1O` [3'-Deoxydenosine]: 0.848 ± 0.11. On the same count and under the same terms, the same measure for `O=C1c2c(O)cc(O)cc2O[C@H](c2ccc(O)c(O)c2)[C@H]1O` (racemic) [Taxifolin-(+/-)]: 0.835 ± 0.4; for `O=C(c1ccccc1)c1ccc2n1CCC2C(=O)O` (stereo unspecified) [Ketorolac tromethamine]: 0.949 ± 0.44. Regarding `CC(=O)N[C@H]1[C@H]([C@H](O)[C@H](O)CO)OC(C(=O)O)=C[C@@H]1NC(=N)N` [Zanamivir hydrate], the transfection efficiency was determined as 0.671 ± 0.17. With `CCOc1cc(CC(=O)N[C@@H](CC(C)C)c2ccccc2N2CCCCC2)ccc1C(=O)O` [Repaglinide], the transfection efficiency was 1.43 ± 0.27. On the same count and under the same terms, the same measure for `CCn1cc(C(=O)O)c(=O)c2cc(F)c(N3CCN(C)CC3)cc21` [Pefloxacin mesylate]: 1.38 ± 0.12.
